From the M2OR odorant receptor database
Numbering of substitutions follows the chain as printed. Only a part is listed here, and it is no random draw. The calls were merged from several studies; some rest on single wells. This is one part of the list.

Chains of the proteins cited; added tags and fusions are not shown. A line that says so, or that is headed by a name, gives the form on record, which may keep a tag or linker.
OR7D4, as listed by the source: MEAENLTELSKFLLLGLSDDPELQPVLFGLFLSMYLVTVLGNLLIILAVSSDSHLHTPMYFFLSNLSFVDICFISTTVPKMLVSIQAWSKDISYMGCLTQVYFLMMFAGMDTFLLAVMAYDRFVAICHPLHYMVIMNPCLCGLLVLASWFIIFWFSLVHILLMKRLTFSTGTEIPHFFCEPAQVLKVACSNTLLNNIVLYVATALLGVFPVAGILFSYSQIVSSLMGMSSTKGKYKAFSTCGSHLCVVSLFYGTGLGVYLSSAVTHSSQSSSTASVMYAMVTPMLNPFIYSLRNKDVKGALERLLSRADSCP

Key:
Details in all cases: stereoisomer not certain
OR7D2 = test system: T1, OR7D2
T1 sequence (whole entry): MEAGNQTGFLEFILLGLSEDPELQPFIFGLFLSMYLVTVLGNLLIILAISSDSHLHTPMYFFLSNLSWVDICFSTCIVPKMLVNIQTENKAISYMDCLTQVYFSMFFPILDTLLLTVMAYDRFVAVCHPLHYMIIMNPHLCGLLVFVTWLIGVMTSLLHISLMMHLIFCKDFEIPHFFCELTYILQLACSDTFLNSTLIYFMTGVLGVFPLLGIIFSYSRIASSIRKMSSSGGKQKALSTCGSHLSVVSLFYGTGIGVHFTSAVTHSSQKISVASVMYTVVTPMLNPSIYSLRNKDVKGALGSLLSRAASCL
Method in brief: (§1)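 Each receptor–molecule pair is labelled responsive or non-responsive (inactive) according to whether the original authors judged the measured signal statistically different from baseline. The data were taken from the main text and supplementary material of published papers and checked for typos and inconsistencies. Assay methods differed by source, with transient luciferase assays in mammalian cell lines being common.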

OR7D4 (Homo sapiens) = biological target: T2, OR7D4 (Homo sapiens) (UniProt Q8NG98)
T2 sequence (whole entry): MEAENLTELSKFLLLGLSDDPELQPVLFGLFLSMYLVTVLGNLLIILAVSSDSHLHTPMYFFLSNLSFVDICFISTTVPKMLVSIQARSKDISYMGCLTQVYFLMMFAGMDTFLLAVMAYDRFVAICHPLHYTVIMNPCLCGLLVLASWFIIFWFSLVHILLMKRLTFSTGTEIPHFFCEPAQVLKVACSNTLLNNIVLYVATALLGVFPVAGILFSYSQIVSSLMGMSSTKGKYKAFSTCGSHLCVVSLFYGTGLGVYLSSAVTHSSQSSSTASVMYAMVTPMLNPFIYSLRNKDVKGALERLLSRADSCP
Method in brief: as §1

OR7D4 = test system: T3, OR7D4
T3 sequence (whole entry): T2 sequence (whole entry) with R88W, T133M
Method in brief: as §1

OR7G1 (Homo sapiens) = biological target: T4, OR7G1 (Homo sapiens) (UniProt Q8NGA0)
T4 sequence (whole entry): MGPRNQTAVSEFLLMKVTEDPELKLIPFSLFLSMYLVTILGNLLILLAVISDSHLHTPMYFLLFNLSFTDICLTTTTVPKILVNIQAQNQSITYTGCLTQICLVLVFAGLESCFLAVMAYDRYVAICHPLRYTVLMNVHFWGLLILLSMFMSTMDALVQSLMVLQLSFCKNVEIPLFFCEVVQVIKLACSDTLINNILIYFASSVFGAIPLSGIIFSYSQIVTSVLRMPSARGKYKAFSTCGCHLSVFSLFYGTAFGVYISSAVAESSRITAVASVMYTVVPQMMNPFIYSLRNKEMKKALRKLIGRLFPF
Method in brief: as §1

OR7G2 (Homo sapiens) = biological target: T5, OR7G2 (Homo sapiens) (UniProt Q8NG99)
T5 sequence (whole entry): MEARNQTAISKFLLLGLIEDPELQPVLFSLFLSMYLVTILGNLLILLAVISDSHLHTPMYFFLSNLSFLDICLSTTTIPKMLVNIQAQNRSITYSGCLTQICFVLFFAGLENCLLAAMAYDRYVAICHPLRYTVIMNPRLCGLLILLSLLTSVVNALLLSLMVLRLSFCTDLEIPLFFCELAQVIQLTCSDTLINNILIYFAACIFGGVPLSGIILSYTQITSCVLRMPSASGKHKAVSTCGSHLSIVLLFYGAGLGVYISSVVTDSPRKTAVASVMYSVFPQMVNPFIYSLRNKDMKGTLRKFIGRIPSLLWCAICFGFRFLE
Method in brief: as §1

OR7G2 = test system: T6, OR7G2
T6 sequence (whole entry): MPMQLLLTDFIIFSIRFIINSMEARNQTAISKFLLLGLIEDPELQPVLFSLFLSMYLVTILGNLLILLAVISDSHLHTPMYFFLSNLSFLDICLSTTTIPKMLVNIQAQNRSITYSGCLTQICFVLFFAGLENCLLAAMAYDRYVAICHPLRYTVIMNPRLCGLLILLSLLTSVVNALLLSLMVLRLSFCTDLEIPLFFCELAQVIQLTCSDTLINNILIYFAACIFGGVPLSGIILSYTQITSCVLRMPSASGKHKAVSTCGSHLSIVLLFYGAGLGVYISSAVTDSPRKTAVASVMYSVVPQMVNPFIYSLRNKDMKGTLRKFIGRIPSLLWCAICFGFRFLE
Method in brief: as §1

OR7G3 (Homo sapiens) = biological target: T7, OR7G3 (Homo sapiens) (UniProt Q8NG95)
T7 sequence (whole entry): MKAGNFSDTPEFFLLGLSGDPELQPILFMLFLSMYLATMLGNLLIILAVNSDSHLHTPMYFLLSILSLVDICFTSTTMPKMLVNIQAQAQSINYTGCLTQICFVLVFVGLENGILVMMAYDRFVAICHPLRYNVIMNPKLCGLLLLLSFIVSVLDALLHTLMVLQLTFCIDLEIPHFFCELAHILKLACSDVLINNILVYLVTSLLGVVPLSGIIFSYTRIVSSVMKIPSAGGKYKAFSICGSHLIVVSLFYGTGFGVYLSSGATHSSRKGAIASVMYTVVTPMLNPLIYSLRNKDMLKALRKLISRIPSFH
Method in brief: as §1

OR8A1 = test system: T8, OR8A1
T8 sequence (whole entry): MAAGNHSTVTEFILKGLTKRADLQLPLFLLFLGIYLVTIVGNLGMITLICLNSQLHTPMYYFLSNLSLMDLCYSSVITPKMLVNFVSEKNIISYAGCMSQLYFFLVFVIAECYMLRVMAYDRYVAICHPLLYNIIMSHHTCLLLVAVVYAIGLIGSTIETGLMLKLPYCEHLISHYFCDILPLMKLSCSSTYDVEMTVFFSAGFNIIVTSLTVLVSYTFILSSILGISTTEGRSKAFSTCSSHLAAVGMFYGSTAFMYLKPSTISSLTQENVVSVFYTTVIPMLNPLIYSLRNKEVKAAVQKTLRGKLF
Method in brief: as §1

OR8B12 (Homo sapiens) = biological target: T9, OR8B12 (Homo sapiens) (UniProt Q8NGG6)
T9 sequence (whole entry): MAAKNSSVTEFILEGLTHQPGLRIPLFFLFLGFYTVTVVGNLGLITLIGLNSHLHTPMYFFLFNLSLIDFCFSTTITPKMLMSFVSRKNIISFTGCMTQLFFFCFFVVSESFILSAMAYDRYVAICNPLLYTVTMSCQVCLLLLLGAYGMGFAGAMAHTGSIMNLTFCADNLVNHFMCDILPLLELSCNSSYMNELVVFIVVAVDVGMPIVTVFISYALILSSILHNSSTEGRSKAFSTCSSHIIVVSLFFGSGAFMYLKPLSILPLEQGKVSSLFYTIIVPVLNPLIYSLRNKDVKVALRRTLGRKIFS
Method in brief: as §1

OR8B2 (Homo sapiens) = biological target: T10, OR8B2 (Homo sapiens) (UniProt Q96RD0)
T10 sequence (whole entry): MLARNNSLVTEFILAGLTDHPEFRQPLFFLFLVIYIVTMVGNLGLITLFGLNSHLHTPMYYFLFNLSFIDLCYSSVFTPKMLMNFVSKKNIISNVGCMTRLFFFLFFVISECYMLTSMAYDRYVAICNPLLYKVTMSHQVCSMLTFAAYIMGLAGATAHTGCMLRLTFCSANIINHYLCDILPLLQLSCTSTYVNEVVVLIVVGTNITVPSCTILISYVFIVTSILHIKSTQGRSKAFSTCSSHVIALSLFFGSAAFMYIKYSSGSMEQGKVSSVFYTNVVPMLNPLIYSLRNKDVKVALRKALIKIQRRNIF
Method in brief: as §1

Measured: odorant receptor agonist call;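 also: active if original authors judged signal statistically different from baseline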

CCCCOC(C)=O
inactive: all assays above
